Our source for the binding values is publication PMC10256737.

The target in this assay is T1, Capping actin protein, gelsolin-like (CAPG) (human (endogenous in THP-1)) (UniProt P40121).
T1 sequence: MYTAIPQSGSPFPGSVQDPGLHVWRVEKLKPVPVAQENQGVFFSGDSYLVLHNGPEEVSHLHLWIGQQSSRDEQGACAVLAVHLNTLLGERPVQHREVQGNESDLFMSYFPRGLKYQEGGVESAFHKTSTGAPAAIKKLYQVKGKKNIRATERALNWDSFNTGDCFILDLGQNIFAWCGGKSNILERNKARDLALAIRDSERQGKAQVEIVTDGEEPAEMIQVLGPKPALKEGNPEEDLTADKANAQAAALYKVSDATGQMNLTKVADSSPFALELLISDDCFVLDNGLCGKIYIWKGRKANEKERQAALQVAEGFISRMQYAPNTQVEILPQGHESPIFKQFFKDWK
Description: affinity purification with mass spectrometry; endogenous CAPG precipitated from pre-cleared THP-1 nuclear extracts with CAPG antibody (ab181092) on Protein G agarose, IgG control; IP DNP buffer (20 mM HEPES pH 7.9, 100 mM KCl, 0.02% NP-40), 5 h at 4 °C; whole lane LC-MS/MS; hits FC > 2 over IgG.

Results are given in words; binding and its absence hold for the method and conditions named. Binding seen in cells or lysates may run through a third protein. A yes stands for co-enrichment or nearness to the bait. Other partners may have been found.

B1: ZFP91 (protein, UniProt Q96JP5 1-570)
chain: MPGETEEPRPPEQQDQEGGEAAKAAPEEPQQRPPEAVAAAPAGTTSSRVLRGGRDRGRAAAAAAAAAVSRRRKAEYPRRRRSSPSARPPDVPGQQPQAAKSPSPVQGKKSPRLLCIEKVTTDKDPKEEKEEEDDSALPQEVSIAASRPSRGWRSSRTSVSRHRDTENTRSSRSKTGSLQLICKSEPNTDQLDYDVGEEHQSPGGISSEEEEEEEEEMLISEEEIPFKDDPRDETYKPHLERETPKPRRKSGKVKEEKEKKEIKVEVEVEVKEEENEIREDEEPPRKRGRRRKDDKSPRLPKRRKKPPIQYVRCEMEGCGTVLAHPRYLQHHIKYQHLLKKKYVCPHPSCGRLFRLQKQLLRHAKHHTDQRDYICEYCARAFKSSHNLAVHRMIHTGEKPLQCEICGFTCRQKASLNWHMKKHDADSFYQFSCNICGKKFEKKDSVVAHKAKSHPEVLIAEALAANAGALITSTDILGTNPESLTQPSDGQGLPLLPEPLGNSTSGECLLLEAEGMSKSYCSGTERVSLMADGKIFVGSGSSGGTEGLVMNSDILGATTEVLIEDSDSAGP
Take B1: the binding entry is reported as “binds”.
